# Screen size: about 52,000 sequences; about 210 (0.4%) were called active.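 How the source made its calls: active means gene whose silencing raises cell survival under the drug, median off-target-corrected z-score across its silencing RNAs 2 or more; inactive means the rest.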 This is one part of the list.
# Test: Resistance to Poly (ADP-Ribose) Polymerase inhibitor: Gene Identification via Genome-wide siRNA Screen
# Conditions: mouse BRCA2 R2336H ES cells, olaparib, CellTiter-Glo viability; stronger effect = higher value
# Summary of the method: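 Mouse BRCA2 R2336H ES cells were reverse-transfected with siRNA (20 nM final), treated at 48 h with 500 nM olaparib, and read by CellTiter-Glo after 72 h. Scores: MAD-based z per siRNA, median per gene, seed off-target correction.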
row,Sequence,z-score
1,GGGUCAAAAUGUGAGCUAUTT against BC003331,inactive: 0.675
2,GGAAGCAGGGCAGCUUAUUTT against Hbq1,inactive: 0.0397
3,GGUCUGGUCAUCUCAGUUUTT against 8430420C20Rik,inactive: -1.43
4,GCCCUUAUGGACGAAAUUUTT against Ang2,inactive: 1.12
5,GGUGGUCACUAGCUAACCCTT against 4632433K11Rik,inactive: 0.546
6,GGAAAAGGUGUUCUGUUUUTT against Ankrd5,inactive: -0.0357
7,GGAAAAAAGACCACCAAGATT against Mtif2,inactive: -0.589
8,GUUCGAAAAGGGAAUGAUATT against LOC212285,inactive: 1.34
9,CCAGUAUCUAAUUGGAAUATT against 1700019B16Rik,inactive: -0.294
10,GCCGAGCAGAUGUACAGAATT against Zfp39,inactive: 1.8
11,GGAUUCUCAGAAUGCUGGUTT against Polr3f,inactive: 0.367
12,CCAGAGAGCCUUUUGUUUUTT against 9130413I22Rik,inactive: -0.954
13,CGGAAGAAGCCAGUUAAGATT against 2310016F22Rik,inactive: 0.503
14,GCCCUGUCGUUUAUUGUGGTT against Cacng4,inactive: 2.37
15,CCCAAACAUAGCUGAAUAATT against Muc1,inactive: -0.696
16,GGUCAAUAUCCUCGGACAUTT against Hsd17b13,inactive: 0.672
17,GCGAAUUUGCCUCUUACUATT against Rad9,inactive: -1.87
18,GCGAGUCGUGAUUGACAACTT against Pnkp,inactive: -0.408
19,GGCAAUCAGGUUGACAGAUTT against C130079G13Rik,inactive: -0.383
20,CCAGGUAUUCUUAAUAGACTT against Zfp207,inactive: -2.09
21,GGUCACAGUUGGCAAAGAUTT against Myh11,inactive: 1.11
22,GGAAUGCAUGAUGAUGUCATT against Prlpf,inactive: -3.09
23,GCUAAAGUGACCUUAAAACTT against Phactr4,inactive: 1.19
24,GGCCUAAGAUCAACUGACATT against Dtprp,inactive: -1.14
25,GGCUAUGGAUGUCUCCAAUTT against Gstm4,inactive: -0.0857
26,AGACAGAUUCCAGUCCUGGTT against 4930451I11Rik,inactive: 0.584

# Looked up one by one from above (2):
row,Sequence,z-score
6,GGAAAAGGUGUUCUGUUUUTT against Ankrd5,inactive: -0.0357
7,GGAAAAAAGACCACCAAGATT against Mtif2,inactive: -0.589

# Remaining list, next part

row,Sequence,z-score
1,GCCCAGAAUCAACUCCUACTT against Wwp2,inactive: -0.105
2,GCCUAUUAUAUUUAGACAGTT against Col4a6,inactive: 0.84
3,GGGACCAAGCAGGUAAAAATT against Kif3a,active: 4.17
4,GGAAUUAAAGAGGAAACAATT against Zfp354b,inactive: 0.0735
5,GCAUGGAUUGCUGUUUCUATT against 4930432H15Rik,inactive: 0.662
6,GGAGGAAUAUGACACAGUGTT against Wars2,inactive: -0.557
7,GCUAGAGGAUGGCUGAGCUTT against Poll,inactive: -0.666
8,GGAUCUAGAUGAGAAUGAATT against Fip1l1,inactive: -2.79
9,CCGUCAUGCUGAUUGCCUUTT against Gpr119,inactive: -2.32
10,GGACAUUAUCCUCAGGGUGTT against Ccm2,inactive: -1.15
11,GGAGAGUUAUUUGACCACCTT against Emd,inactive: -0.156
12,CCUAAAGUGAUUGCUGAUUTT against Olfr1202,inactive: 1.03
13,GGGUUCAGACUGCUUCUUATT against 2900005J15Rik,inactive: -0.048
14,CCCGACUUCAGGAUGACAATT against AI256711,inactive: -0.496
15,GGAUGAAAAACUUUGAAACTT against Hao1,inactive: -0.0113
16,CGGAGUCACGCACAACUUCTT against 6330406P08Rik,inactive: 1.04
17,GCACCAUAUCUGAGAACUUTT against D13Wsu14e,inactive: -1.05
18,CCCAACUAGUGUAGCUAUCTT against Usf1,inactive: -1.72
19,GCUCCUUAGAGAGAGUAUUTT against Sod3,inactive: -1.58
20,GGUUGGUAGGCUUUGGUGUTT against 5730593N15Rik,inactive: 1.22
21,GGUCAAGUUUGACCUCAAGTT against Mybpc3,inactive: -0.0605
22,GGGACAACAAUGGUUUAGGTT against Tsga13,inactive: -0.167
23,GCAGACAAAGAUCGCCAAATT against H2-Q5,inactive: 0.242
24,GGUCCUGUUAAACUGAAAGTT against Fkbp1a,inactive: 0.0161
25,CCGGACUCAGUUAUGGAAGTT against Gpr135,inactive: -0.78
26,GCUACAUAAUUCCGAAGUUTT against Fmr1,inactive: 1.42

# From PubChem BioAssay AID1347423 (Functional Genomics Laboratory (NCATS/FGL), 2020)
